Measurements reported in paper PMC3260153.
Results are given in words; binding and its absence hold for the method and conditions named. Binding seen in cells or lysates may run through a third protein. Some binding calls cover weakened binding; strength is not graded here. Sequences can lack the tags named with a protein.

Sequences of proteins named here, by UniProt entry; tags and fusion partners are left off. A change or cut given only in a name is not applied to a line headed by its entry. A line that says so, or that is headed by a name, gives the form on record, which may keep a tag or linker. Residues count along the entry.
FLAG-tagged mouse Cradd death domain (wild type) (O88843, residues 116-188): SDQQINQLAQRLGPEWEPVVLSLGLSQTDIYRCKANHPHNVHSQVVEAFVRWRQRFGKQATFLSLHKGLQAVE
FLAG-tagged mouse Cradd death domain p.Gly128Arg (O88843, form named): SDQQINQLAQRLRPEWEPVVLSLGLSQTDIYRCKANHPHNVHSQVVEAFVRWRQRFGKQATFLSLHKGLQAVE

Key:
[1] = molecular target: FLAG-tagged mouse Cradd death domain p.Gly128Arg (mouse) (UniProt O88843); experiment: co-IP; FLAG-M2 affinity resin; lysates of mIMCD3 cells co-transfected with FLAG-Cradd DD and V5-Pidd DD; cleared lysates incubated at 37°C for 1 h prior to overnight incubation on the resin; blots with anti-FLAG M2 and anti-V5
[2] = molecular target: FLAG-tagged mouse Cradd death domain (wild type) (mouse) (UniProt O88843); experiment: as above

B1: V5-tagged mouse Pidd death domain (wild type) (domain or fragment, UniProt Q9ERV7 793-878)
chain: TQSNLLSVASRLGPDWPAVALHLGMPYHKLQRIRHEFRDDLDGQVRHMLFSWAERQTGQPGAVGHLVQALEQSDRRDVAEEVRAIL
binding [1]: no binding
binding [2]: binds
